Assay results from publication PMC11982335.
These are yes or no findings as the source states them, for the method shown. In cells and extracts the contact can be indirect. Some binding calls cover weakened binding; strength is not graded here.

The chains behind the UniProt entries cited, without tags or fusion partners.
UniProt Q9NRL2: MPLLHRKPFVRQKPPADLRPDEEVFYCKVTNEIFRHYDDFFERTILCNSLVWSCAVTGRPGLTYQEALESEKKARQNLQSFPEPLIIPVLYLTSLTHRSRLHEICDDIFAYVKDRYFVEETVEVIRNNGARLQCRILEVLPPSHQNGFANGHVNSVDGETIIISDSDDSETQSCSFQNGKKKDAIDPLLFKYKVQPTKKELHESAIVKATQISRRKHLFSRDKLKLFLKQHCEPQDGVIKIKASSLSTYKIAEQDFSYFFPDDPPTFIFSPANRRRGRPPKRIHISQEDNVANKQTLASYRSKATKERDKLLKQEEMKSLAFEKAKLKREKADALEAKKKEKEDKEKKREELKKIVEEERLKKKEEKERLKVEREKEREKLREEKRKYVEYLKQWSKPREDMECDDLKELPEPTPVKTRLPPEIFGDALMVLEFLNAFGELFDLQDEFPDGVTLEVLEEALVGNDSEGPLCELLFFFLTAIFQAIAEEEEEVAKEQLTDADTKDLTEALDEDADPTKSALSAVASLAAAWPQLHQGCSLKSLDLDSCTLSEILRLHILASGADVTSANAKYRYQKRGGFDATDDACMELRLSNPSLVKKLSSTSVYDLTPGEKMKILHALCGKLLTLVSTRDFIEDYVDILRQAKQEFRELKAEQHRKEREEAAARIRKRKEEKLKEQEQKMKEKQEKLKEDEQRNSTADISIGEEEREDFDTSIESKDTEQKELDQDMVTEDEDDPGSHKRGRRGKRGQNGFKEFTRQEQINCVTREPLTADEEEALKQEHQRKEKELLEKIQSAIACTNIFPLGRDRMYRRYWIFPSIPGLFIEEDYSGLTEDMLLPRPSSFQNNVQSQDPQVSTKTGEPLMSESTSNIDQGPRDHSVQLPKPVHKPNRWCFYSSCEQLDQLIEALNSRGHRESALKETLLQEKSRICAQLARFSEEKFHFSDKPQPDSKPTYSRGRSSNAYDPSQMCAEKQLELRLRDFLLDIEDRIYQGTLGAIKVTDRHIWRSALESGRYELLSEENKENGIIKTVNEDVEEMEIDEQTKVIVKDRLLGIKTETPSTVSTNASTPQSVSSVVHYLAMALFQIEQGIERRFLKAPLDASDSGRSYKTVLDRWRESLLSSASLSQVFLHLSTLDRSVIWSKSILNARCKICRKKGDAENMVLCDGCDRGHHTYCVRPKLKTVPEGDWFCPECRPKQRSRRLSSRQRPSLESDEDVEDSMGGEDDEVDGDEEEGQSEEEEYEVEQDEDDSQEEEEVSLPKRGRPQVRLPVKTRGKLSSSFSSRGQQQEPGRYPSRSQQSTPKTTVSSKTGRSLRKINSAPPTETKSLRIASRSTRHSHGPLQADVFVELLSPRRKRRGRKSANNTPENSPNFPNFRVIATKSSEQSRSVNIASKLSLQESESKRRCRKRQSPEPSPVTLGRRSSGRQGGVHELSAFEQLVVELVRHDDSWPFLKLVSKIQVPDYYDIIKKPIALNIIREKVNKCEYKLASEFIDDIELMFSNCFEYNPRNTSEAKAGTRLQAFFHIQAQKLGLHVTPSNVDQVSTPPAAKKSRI
UniProt P48431: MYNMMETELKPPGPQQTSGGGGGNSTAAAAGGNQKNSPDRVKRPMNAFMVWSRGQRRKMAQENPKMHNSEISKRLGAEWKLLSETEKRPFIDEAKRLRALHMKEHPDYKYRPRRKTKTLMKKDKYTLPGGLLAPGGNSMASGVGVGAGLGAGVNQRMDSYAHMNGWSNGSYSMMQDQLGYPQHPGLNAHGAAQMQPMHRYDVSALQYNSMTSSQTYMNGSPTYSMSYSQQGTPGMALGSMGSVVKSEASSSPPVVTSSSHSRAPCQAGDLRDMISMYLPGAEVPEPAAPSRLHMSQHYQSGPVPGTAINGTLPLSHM
UniProt Q13547: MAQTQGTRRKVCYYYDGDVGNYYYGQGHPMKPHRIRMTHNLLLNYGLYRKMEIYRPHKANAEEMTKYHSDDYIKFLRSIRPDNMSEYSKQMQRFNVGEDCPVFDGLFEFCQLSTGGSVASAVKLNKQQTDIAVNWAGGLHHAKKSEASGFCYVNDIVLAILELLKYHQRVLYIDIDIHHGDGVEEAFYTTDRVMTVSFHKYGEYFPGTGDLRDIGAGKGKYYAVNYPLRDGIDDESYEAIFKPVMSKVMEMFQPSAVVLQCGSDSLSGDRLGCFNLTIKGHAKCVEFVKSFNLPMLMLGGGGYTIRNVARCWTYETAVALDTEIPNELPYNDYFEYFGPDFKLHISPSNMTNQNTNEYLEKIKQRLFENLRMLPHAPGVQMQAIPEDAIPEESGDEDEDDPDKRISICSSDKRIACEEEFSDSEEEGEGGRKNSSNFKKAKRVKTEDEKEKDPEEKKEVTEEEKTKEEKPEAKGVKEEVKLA
UniProt Q14839: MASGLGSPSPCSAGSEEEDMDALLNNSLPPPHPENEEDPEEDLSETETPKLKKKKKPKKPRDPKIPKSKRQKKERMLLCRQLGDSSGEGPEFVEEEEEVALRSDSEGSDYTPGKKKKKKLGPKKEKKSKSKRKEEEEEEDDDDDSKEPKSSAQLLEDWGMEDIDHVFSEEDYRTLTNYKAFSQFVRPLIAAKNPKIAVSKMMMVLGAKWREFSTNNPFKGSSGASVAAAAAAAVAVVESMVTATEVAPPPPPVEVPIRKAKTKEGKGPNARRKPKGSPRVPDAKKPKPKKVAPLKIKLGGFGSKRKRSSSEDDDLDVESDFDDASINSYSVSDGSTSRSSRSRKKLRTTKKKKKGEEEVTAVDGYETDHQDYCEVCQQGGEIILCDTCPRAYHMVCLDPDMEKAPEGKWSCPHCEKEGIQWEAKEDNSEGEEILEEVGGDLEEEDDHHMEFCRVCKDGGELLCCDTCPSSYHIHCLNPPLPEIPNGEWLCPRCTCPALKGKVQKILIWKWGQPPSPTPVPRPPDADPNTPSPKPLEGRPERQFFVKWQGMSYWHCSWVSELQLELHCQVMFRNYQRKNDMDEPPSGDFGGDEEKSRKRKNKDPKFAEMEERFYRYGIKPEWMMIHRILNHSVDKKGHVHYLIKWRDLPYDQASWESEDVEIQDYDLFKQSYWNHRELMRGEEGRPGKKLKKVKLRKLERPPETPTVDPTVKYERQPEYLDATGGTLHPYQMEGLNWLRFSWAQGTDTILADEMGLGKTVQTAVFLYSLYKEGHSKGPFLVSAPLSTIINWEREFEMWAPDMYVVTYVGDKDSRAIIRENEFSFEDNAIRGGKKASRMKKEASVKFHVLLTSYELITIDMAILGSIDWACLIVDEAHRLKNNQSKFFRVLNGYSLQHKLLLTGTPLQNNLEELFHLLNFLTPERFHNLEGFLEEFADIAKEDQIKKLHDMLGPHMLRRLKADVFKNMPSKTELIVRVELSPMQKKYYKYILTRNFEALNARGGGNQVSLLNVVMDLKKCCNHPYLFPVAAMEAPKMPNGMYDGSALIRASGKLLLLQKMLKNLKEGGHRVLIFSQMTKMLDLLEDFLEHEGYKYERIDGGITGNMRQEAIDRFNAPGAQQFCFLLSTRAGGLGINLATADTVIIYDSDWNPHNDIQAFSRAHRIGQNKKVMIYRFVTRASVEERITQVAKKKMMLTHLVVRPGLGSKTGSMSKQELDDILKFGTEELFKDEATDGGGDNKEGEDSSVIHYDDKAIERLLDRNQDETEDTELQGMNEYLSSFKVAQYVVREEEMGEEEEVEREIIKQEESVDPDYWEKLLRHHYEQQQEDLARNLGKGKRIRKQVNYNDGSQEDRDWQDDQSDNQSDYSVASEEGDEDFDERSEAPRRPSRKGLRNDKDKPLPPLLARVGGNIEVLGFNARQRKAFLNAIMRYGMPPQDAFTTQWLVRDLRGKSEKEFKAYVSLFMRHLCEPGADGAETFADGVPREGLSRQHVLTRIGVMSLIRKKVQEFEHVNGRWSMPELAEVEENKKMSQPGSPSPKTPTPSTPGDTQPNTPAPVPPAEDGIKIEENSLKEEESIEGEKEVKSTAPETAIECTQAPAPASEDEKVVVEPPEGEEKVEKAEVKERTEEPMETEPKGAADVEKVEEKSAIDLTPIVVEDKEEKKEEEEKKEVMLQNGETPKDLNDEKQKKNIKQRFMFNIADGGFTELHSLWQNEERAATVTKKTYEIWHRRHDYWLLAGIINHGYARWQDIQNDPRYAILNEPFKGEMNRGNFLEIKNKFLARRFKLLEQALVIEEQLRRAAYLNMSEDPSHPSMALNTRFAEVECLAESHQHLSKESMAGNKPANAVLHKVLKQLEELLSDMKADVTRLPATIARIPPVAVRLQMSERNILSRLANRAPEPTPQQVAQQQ

How the values were obtained:
[1] = biological target: FL BAZ1A (in 293T cells) (UniProt Q9NRL2); experiment: co-IP; 293T cells transfected with the indicated plasmids, immunoblot of immunoprecipitates; also with or without USP10 plasmids
[2] = biological target: Myc-SOX2 (in Cal-27 cells) (UniProt P48431); experiment: co-IP; stepwise IP-re-IP in Cal-27 cells transfected with Flag-BAZ1A and Myc-SOX2; first round anti-FLAG antibody, second round (re-IP) anti-Myc antibody
[3] = biological target: Flag-BAZ1A (in Cal-27 cells) (UniProt Q9NRL2); experiment: co-IP; Cal-27 cells transfected with Flag-BAZ1A and Myc-SOX2; first round of IP with an anti-FLAG antibody
[4] = biological target: USP10 (ubiquitin-specific peptidase 10), endogenous (human (endogenous; cell line not stated, all lines of the paper are human)) (UniProt Q14694); experiment: co-IP; endogenous proteins, co-IP and western blotting
[5] = biological target: Flag-BAZ1A (in Cal-27 cells) (UniProt Q9NRL2); experiment: co-IP; stepwise IP-re-IP in Cal-27 cells transfected with Flag-BAZ1A and Myc-SOX2; first round anti-FLAG antibody, second round (re-IP) anti-Myc antibody

binding [2]	binding [3]	Substance	other results
–	–	SOX2 (SRY-box transcription factor 2), in 293T cells (from UniProt P48431 1-317)	binding [1]: binds
no binding	binds	HDAC1 (from UniProt Q13547 1-482)	–
no binding	binds	CHD4 (from UniProt Q14839 1-1912)	–
–	–	BAZ1A (bromodomain adjacent to zinc finger domain, 1A), endogenous (from UniProt Q9NRL2 1-1556)	binding [4]: binds
–	–	Myc-SOX2 (in Cal-27 cells) (from UniProt P48431 1-317)	binding [5]: binds
